Some results were stated once for a whole list of compounds, not compound by compound. At least one compound was matched to its structure with a doubt left.
Tests used:
Format in all cases: in vivo
[1] = tested on: Aedes aegypti; settings: 2500 ppm; larval mortality, 2 days
[2] = tested on: Plutella xylostella; experiment: B.6 Diamond Back Moth, cabbage leaf disc dip test; settings: 300 ppm; 3rd instar larvae, 72 hours after treatment
Summary of the method: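 Cabbage leaf discs were dipped in compound in 1:1 water:acetone with 0.01% surfactant, air-dried, then infested with ten 3rd instar larvae. Mortality read at 72 h after treatment, with feeding damage scored on a 0–100% scale.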

[3] = tested on: Dichromothrips corbetti; experiment: B.7 Orchid Thrips, floral-immersion test; settings: 300 ppm; adult thrips, 72 hours after treatment
Summary of the method: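 Orchid petals were dipped in compound diluted in 1:1 acetone:water with 0.01% v/v Kinetic, dried, then sealed with about 20 lab-colony adult thrips. Arenas were held in the dark at about 28 °C, and percent mortality was scored 72 h after treatment.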

[4] = tested on: Nephotettix virescens; experiment: B.9 Rice Green Leafhopper, rice seedling spray test; settings: 300 ppm; adults, after 72 hours
Description: Four to five-week old rice seedlings with cut upper leaf portion were cleaned and washed 24 hours before spraying. The active compounds were formulated in 1:1 acetone:water (vol:vol), and 0.01% vol/vol surfactant (Kinetic) was added. Potted rice seedlings were sprayed with 5-6 ml test solution, air dried, covered with Mylar cages and inoculated with 10 adults. Treated rice plants were kept at about 28-29° C. and relative humidity of about 50-60%. Percent mortality was recorded after 72 hours.

[5] = tested on: Anthonomus grandis; experiment: B.1 Boll weevil (Anthonomus grandis), 96-well microtiter plate diet test; settings: 2500 ppm; egg and larval mortality, 5 days
[6] = tested on: Heliothis virescens; experiment: B.4 Tobacco Budworm, microtiter plate diet test; settings: 2500 ppm; egg and larval mortality, 5 days
Summary of the method: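 Compounds in 25% DMSO/75% water sprayed at various concentrations onto diet in microtiter wells each holding 15-25 H. virescens eggs, two replicates. Plates kept 5 days at about 28±1 °C and 80±5% relative humidity; egg and larval mortality then scored visually.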

[7] = tested on: Spodoptera eridania; experiment: B.11 Southern Armyworm 2nd instar larvae, lima bean foliar spray test; settings: 300 ppm, 4 days after treatment
Summary of the method: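 Scoring of mortality and feeding reduction was done 4 days after treatment, relative to untreated controls. Sieva lima beans at the 1st true leaf stage received an electrostatic foliar spray (50:50 acetone:water, 0.01% surfactant), then were bagged with 10–11 larvae at about 25 °C and 20–40% RH.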

[8] = tested on: Nezara viridula; experiment: B.8 Green Soldier Stink Bug, soybean pod spray test; settings: 300 ppm; late 3rd instar, after 5 days
Description: The active compound was dissolved at the desired concentration in a mixture of 1:1 (vol:vol) distilled water:aceteone. Surfactant (Kinetic) was added at a rate of 0.01% (vol/vol). The test solution was prepared at the day of use. Soybean pods were placed in 90×50 mm glass Petri dishes lined with moistened filter paper and inoculated with ten late 3rd instar N. viridula. Using a hand atomizer, an approximately 2 ml solution was sprayed into each Petri dish. Treated setup was kept at about 25-26° C. and relative humidity of about 65-70%. Percent mortality was recorded after 5 days.

[9] = tested on: Bemisia argentifolii; experiment: B.12 Silverleaf Whitefly (adults), cotton plant spray test; settings: 300 ppm, 3 days after treatment
Description: The active compounds were formulated by a Tecan liquid handler in 100% cyclohexanone as a 10,000-ppm solution supplied in tubes. The 10,000-ppm solution was serially diluted in 100% cyclohexanone to make interim solutions. These served as stock solutions for which final dilutions were made by the Tecan in 50% acetone:50% water (v/v) into 5 or 10 ml glass vials. A nonionic surfactant (Kinetic®) was included in the solution at a volume of 0.01% (v/v). The vials were then inserted into an automated electrostatic sprayer equipped with an atomizing nozzle for application to plants/insects. Cotton plants at the cotyledon stage (one plant per pot) were sprayed by an automated electrostatic plant sprayer equipped with an atomizing spray nozzle. The plants were dried in the sprayer fume hood and then removed from the sprayer. Each pot was placed into a plastic cup and about 10 to 12 whitefly adults (approximately 3-5 days old) were introduced. The insects were collected using an aspirator and a nontoxic Tygon® tubing connected to a barrier pipette tip. The tip, containing the collected insects, was then gently inserted into the soil containing the treated plant, allowing insects to crawl out of the tip to reach the foliage for feeding. Cups were covered with a reusable screened lid. Test plants were maintained in a growth room at about 25° C. and about 20-40% relative humidity for 3 days, avoiding direct exposure to fluorescent light (14:10 light:dark photoperiod) to prevent trapping of heat inside the cup. Mortality was assessed 3 days after treatment, compared to untreated control plants.

[10] = tested on: Myzus persicae; experiment: B.3 Green Peach Aphid (mixed life stages), systemic artificial diet test; settings: 2500 ppm; treated aphid diet, 3 days
Summary of the method: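 Compounds, formulated in 25% DMSO/75% water, were mixed at several concentrations into liquid artificial diet under a membrane, two replicates. 5–8 adult aphids fed on treated diet for 3 days at about 23±1 °C, 50±5% RH. Mortality and fecundity were scored visually.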

Measured: mortality in comparison with untreated controls

CCN(C(=O)c1cc(NC2=NOC(c3cc(Cl)c(F)c(Cl)c3)(C(F)(F)F)C2)ccc1Cl)c1ccc(F)cc1 (centres unmarked) [I-101]
at least 75%: [1] | [2] | [3] | [4] | [5] | [6] | [7]

CN(C(=O)c1cc(N(C)C2=NOC(c3cc(Cl)c(F)c(Cl)c3)(C(F)(F)F)C2)ccc1Cl)c1ccc(F)cc1 (centres unmarked) [I-110]
at least 75%: [8] | [1] | [9] | [2] | [3] | [5] | [10] | [6] | [7]

O=C(NCC(F)(F)F)c1cc(NC2=NOC(c3cc(Cl)cc(Cl)c3)(C(F)(F)F)C2)ccc1OC(F)F (centres unmarked) [I-65]
at least 75%: [8] | [1] | [9] | [2] | [3] | [5] | [10] | [6] | [7]

N#CC1(NC(=O)c2cc(NC3=NOC(c4ccnc(C(F)(F)F)c4)(C(F)(F)F)C3)ccc2Cl)CC1 (centres unmarked) [I-170]
at least 75%: [1] | [2] | [3] | [4] | [5] | [10] | [6] | [7]

N#CC1(NC(=O)c2cc(NC3=NOC(c4cc(Cl)nc(Cl)c4)(C(F)(F)F)C3)ccc2Cl)CC1 (centres unmarked) [I-173]
at least 75%: [1] | [2] | [3] | [4] | [5] | [10] | [6] | [7]

2-chloro-5-[[5-(3,5-dichloro-4-fluoro-phenyl)-5-(trifluoromethyl)-4H-isoxazol-3-yl]amino]-N-[1-(trifluoromethylsulfonyl)azetidin-3-yl]benzamide [I-77]
at least 75%: [9] | [2] | [3] | [5] | [10] | [6] | [7]

N#CC1(NC(=O)c2cc(N(CC3CS(=O)(=O)C3)C3=NOC(c4cc(Cl)cc(Cl)c4)(C(F)(F)F)C3)ccc2Cl)CC1 (centres unmarked) [I-157]
at least 75%: [8] | [1] | [9] | [2] | [3] | [5] | [6] | [7]

N#CC1(NC(=O)c2cc(NC3=NOC(c4cc(Cl)cc(Cl)c4)(C(F)(F)F)C3)ccc2Cl)CC1 (centres unmarked) [I-140]
at least 75%: [8] | [1] | [9] | [3]

N#CC1(NC(=O)c2cc(NC3=NOC(c4cc(Cl)cc(Cl)c4)(C(F)(F)F)C3)ccc2F)CC1 (centres unmarked) [I-78]
at least 75%: [1] | [9] | [2] | [3] | [5] | [10] | [6] | [7]

N#CC1(NC(=O)c2cc(NC3=NOC(c4cc(Cl)cc(Cl)c4)(C(F)(F)F)C3)ccc2OC(F)(F)F)CC1 (centres unmarked) [I-87]
at least 75%: [1] | [9] | [2] | [3] | [5] | [10] | [6] | [7]

Cc1ccc(NC2=NOC(c3cc(Cl)cc(Cl)c3)(C(F)(F)F)C2)cc1C(=O)NCC(F)(F)F (centres unmarked) [I-69]
at least 75%: [1] | [9] | [2] | [3] | [5] | [10] | [6] | [7]

CCN1OCC(NC(=O)c2cc(NC3=NOC(c4cc(Cl)cc(Cl)c4)(C(F)(F)F)C3)ccc2Cl)C1=O (centres unmarked) [I-145]
at least 75%: [8] | [1] | [9] | [3] | [10] | [6] | [7]

N#CC1(NC(=O)c2cc(NC3=NOC(c4cc(Br)cs4)(C(F)(F)F)C3)ccc2Cl)CC1 (centres unmarked) [I-175]
at least 75%: [2] | [3] | [4] | [5] | [7]

CN(C1=NOC(c2cc(Cl)cc(Cl)c2)(C(F)(F)F)C1)c1ccc(Cl)c(C(=O)NC2(c3ccn(C)n3)CC2)c1 (centres unmarked) [I-128]
at least 75%: [1] | [9] | [2] | [3] | [5] | [10] | [6] | [7]
